According to PubChem BioAssay AID1671190 (National Center for Advancing Translational Sciences (NCATS), 2021):
The whole screen tested about 580,000 compounds, of which about 6,100 (1.1%) were called active. Inconclusive means that the source gave no clear call. Such entries were picked first, then a sample of the others. Calls follow the shape of the dose curve; as a rule, active = well fitted inhibition curve with a large enough effect; inconclusive = small, poorly fitted or top-dose-only effect, or another doubt; inactive = no such curve, though single readings can be large or run the other way. A potency beside an inconclusive call is a rough fit, not a confirmed value.

Sequences of proteins named here, by UniProt entry; tags and fusion partners are left off. A change or cut given only in a name is not applied to a line headed by its entry.
UniProt P18054: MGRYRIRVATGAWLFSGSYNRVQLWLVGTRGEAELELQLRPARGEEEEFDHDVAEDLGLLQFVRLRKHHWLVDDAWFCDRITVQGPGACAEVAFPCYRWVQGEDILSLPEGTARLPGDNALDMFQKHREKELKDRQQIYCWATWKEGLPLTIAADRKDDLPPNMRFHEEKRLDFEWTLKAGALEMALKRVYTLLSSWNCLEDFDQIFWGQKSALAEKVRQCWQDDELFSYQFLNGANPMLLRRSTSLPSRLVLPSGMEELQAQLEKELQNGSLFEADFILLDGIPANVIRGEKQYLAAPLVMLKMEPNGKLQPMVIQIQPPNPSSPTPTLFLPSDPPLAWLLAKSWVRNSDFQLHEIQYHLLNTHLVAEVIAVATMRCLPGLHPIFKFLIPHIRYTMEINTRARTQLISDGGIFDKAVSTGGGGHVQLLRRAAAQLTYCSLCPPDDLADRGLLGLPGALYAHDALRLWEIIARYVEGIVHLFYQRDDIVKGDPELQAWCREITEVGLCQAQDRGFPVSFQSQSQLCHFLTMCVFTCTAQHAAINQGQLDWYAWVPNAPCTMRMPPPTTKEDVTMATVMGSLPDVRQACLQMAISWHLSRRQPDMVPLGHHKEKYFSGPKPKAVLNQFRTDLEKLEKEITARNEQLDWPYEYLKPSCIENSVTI

target: Polyunsaturated fatty acid lipoxygenase ALOX12 (Homo sapiens) (UniProt P18054); assay: Primary qHTS assay for inhibitors of human arachidonate 12S-lipoxygenase (ALOX12): Round 2; conditions: purified 12hLO, xylenol orange hydroperoxide absorbance; activity change, negative = inhibition: at 108 µM (top of the series) unless noted
From the text: Assay Provider: Theodore R. Holman Ph.D. University of California, Santa Cruz, California Human lipoxygenase 12hLO is a member of the closely related lipoxygenase family of enzymes which catalyze the site-specific oxidation of arachidonic acid to various hormone precursor molecules and as such is a candidate for drug development in a variety of disease areas, such as cancer and inflammation. Inhibition of 12hLO activity was screened by utilizing arachidonic acid as a substrate. The extent of hydroperoxide product formation was measured by a secondary chromogenic reaction in which xylenol orange (XO, Sigma-Aldrich, cat. number 39,818-7) reacts with the ferric ions produced from the reaction between the hydroperoxide and ferrous ions. The Fe (III)-XO complex is characterized with red-shifted absorbance at 560 nm. A purified preparation of human 12hLO was supplied by Dr. Holman laboratory, University of California, Santa Cruz.
PROTOCOL TABLE SEQUENCE No. (e.g., 1, 2, 3, etc.); […] (e.g., Cells, Incubation, Reagent, etc.); VALUE; DESCRIPTION 1; Enzyme; 3 uL; 150 nM 12hLO enzyme solution dispensed in 1536-well Greiner black, clear bottom plates. 2; Compound; 23 nL; compounds and controls were added. 3; Incubate; 15 min; room temperature. 4; Substrate; 1 uL; 40 uM arachidonic acid (final concentration). 5; Incubate; 30 min; room temperature. 6; Reagent; 4 uL; Fe-XO solution was added to each well. 7; Incubation; 30 min; room temperature 8; Detector; absorbance; Read 1 at 405 nm absorbance using ViewLux (Perkin-Elmer) CCD imager. 9; Detector; absorbance; Read 2 at 573 nm absorbance using ViewLux (Perkin-Elmer) CCD imager. NOTES (numbers refer to sequence above) 1; 150 nM 12hLO (final concentration) in buffer solution (25 mM Hepes, 0.01% Triton X-100, pH 7.0) was dispensed in columns 1, 2, 5-48. Column 1 is neutral (100% activity). Buffer only was dispensed in columns 3 and 4 as no enzyme negative controls. The plates were covered with metal lids with gas-exchange holes. 2; Compounds were pin transferred via a Kalypsys Pin Tool (Wako USA) in column 5-48. Control compound was transferred in column 2, titration of nordihydroguaiaretic acid (NDGA, Sigma-Aldrich, N5023) with top concentration of 20 mM in DMSO then 1:3 dilution in duplicate. Dilution factor of 23 nL into 4 uL final assay volume. 3; Covered assay plates were incubated for 15 min at room temperature. 4; Substrate was added to start the reaction; 40 uM arachidonic acid (Sigma-Aldrich, St. Louis, MO) was dispensed throughout the plate. 6; Chromogenic detection reagent solution (divalent iron/xylenol orange, Fe-XO) was added to each well: 200 uM xylenol orange, 300 uM ferrous ammonium sulfate prepared freshly in 50 mM sulfuric acid. 8, 9; Two absorbance readouts were obtained at 405 nm and at 573 nm using a ViewLux high-throughput CCD plate imager (Perkin-Elmer). The 573 to 405 (Read 2 / Read 1) absorbance ratio was used to compute reaction progress.
% is scaled to controls: 0 for no effect and ±100 for the full control effect; potency is read from the fitted curve at half-maximal effect.

`COC(=O)C1=C(C)N(C)C(=NCc2cccc(C(F)(F)F)c2)NC1c1ccc(C(F)(F)F)cc1` (configuration not stated) was tested. Which Potency did it give?
Its Potency is inconclusive: 50.1 µM [inhibitor, partial curve, poor fit].

With `CC(C)N(Cc1ccccn1)C(=O)c1cc(-c2cccs2)nc2ccccc12` as the molecule, how does the Potency read?
The Potency was inconclusive: 56.2 µM [inhibitor, partial curve, poor fit].

For `O=C1NCCCCCCN(C(=O)c2ccoc2)[C@H]2CCC[C@@H]12`, which Potency is on record?
The Potency was inconclusive: 35.5 µM [inhibitor, single point].

With `c1ccc(-c2ccccc2OCCCN2CCOCC2)cc1` as the molecule, how does the “activity change, negative = inhibition” value read?
The value was inactive: -25.2%.

With `COc1cccc(Cn2c(=O)c(-c3cccs3)nc3cnc(Nc4cccc(OC)c4)nc32)c1` as the molecule, how does the “activity change, negative = inhibition” value read?
Its value is inactive: 46.4%.

With `CC[C@@H]1[C@@H](NC(=O)CCCn2nnc(-c3ccc(F)cc3)n2)[C@@H]2CCO[C@H]12` as the molecule, how does the Potency read?
Its Potency is inconclusive: 100 µM [inhibitor, partial curve, poor fit].

Which Potency does the source give for `COc1ccc(C2C(C#N)=C(N)Oc3cc(O)ccc32)cc1` (configuration not stated) here?
The Potency was inconclusive: 44.7 µM [inhibitor, partial curve, poor fit].

How did the Potency turn out when `CC(C)C(=O)N1CCN(c2nc(-c3ccccc3)c3c(c2C#N)CC(C)(C)OC3)CC1` was run?
Its Potency is inconclusive: 70.8 µM [inhibitor, partial curve, poor fit].

How did the “activity change, negative = inhibition” value turn out when `CC(=O)Nc1cccc(C(=O)/C=C/c2ccc(C)cc2)c1` was run?
The value was inactive: -21.4%.

For `CCOC(=O)CSc1n[nH]c(=S)s1`, which Potency is on record?
The Potency was inconclusive: 15.8 µM [inhibitor, full curve, poor fit].

How did the Potency turn out when `O=C(COc1ccccc1)NCCc1csc(-c2ccc(Cl)cc2)n1` was run?
The Potency was inconclusive: 63.1 µM [inhibitor, partial curve, poor fit].

Which Potency does the source give for `Cc1ccccc1N/N=C/c1c(C)nc2ccccn12` here?
The Potency was inconclusive: 35.5 µM [inhibitor, single point].

Which Potency does the source give for `O=C1NC[C@H](CCCCN2C[C@H](Cc3ccc(O)cc3)N(CC3CCCCC3)C(=O)C2=O)N(CCc2ccc(O)cc2)C1=O` here?
Its Potency is inconclusive: 44.7 µM [inhibitor, partial curve, poor fit].

With `COC(=O)c1[nH]c(C)c(/C(O)=C2\C(=O)C(=O)N(CCN(C)C)C2c2ccccc2OC)c1C` (configuration not stated) as the molecule, how does the Potency read?
The Potency was inconclusive: 44.7 µM [inhibitor, partial curve].

`O=C(C1CC(=O)N(C2CCCC2)C1)N1CCC(Cc2ccccc2)CC1` (configuration not stated) was tested. Which “activity change, negative = inhibition” value did it give?
The value was inactive: 8.65%.

For `Cc1ccc(Sc2c(C)nn(C(=O)C3CC3)c2C)cc1`, which “activity change, negative = inhibition” value is on record?
Its value is inactive: -7.42%.

With `O=C(Cc1csc(NC(=O)Nc2ccc(Cl)cc2)n1)NCc1cccnc1` as the molecule, how does the Potency read?
Its Potency is inconclusive: 50.1 µM [inhibitor, partial curve, poor fit].

With `Nc1nc(N2CCN(C/C=C/c3ccccc3)CC2)nc2ccccc12` as the molecule, how does the Potency read?
The Potency was inconclusive: 35.5 µM [inhibitor, partial curve, poor fit].

With `CCc1ccc2c(COC(=O)c3ccc4c(c3)nnn4CC)cc(=O)oc2c1` as the molecule, how does the “activity change, negative = inhibition” value read?
Its value is inactive: -16.9%.

`CCOC(=O)C1(Cc2ccccc2)CCN(C2Cc3ccccc3C2)CC1` was tested. Which “activity change, negative = inhibition” value did it give?
Its value is inactive: 10.1%.

How did the Potency turn out when `O=C(NC(=S)Nc1ccc(Cl)cc1Cl)C1CC1` was run?
The Potency was inconclusive: 35.5 µM [inhibitor, partial curve, poor fit].

`COc1cc2c(=O)n(-c3ccccc3)c(=O)n(CC(=O)Nc3ccc(C)cc3)c2cc1OC` was tested. Which “activity change, negative = inhibition” value did it give?
The value was inactive: -21.8%.

For `O=S(=O)(NCC(c1cccs1)S(=O)(=O)c1ccccc1)c1ccc(F)cc1` (configuration not stated), which “activity change, negative = inhibition” value is on record?
Its value is inactive: -17.8%.

For `Cc1ccc(NC(=O)Cn2nc3c(cc2=O)CCCCC3)cc1C`, which Potency is on record?
The Potency was inconclusive: 20 µM [inhibitor, full curve, poor fit].

`CC(C)CCC(C)NC(=O)Cc1coc(-c2ccccc2)n1` (configuration not stated) was tested. Which Potency did it give?
The Potency was inconclusive: 17.8 µM [inhibitor, partial curve, poor fit].

For `COc1ccc2c(C)cc(SCC(=O)NC3CCCC3)nc2c1`, which Potency is on record?
Its Potency is inconclusive: 100 µM [inhibitor, partial curve, poor fit].

`CC(C)(C)C(=O)NC(n1cnc2c(N3CCOCC3)ncnc21)C(Cl)(Cl)Cl` (configuration not stated) was tested. Which “activity change, negative = inhibition” value did it give?
The value was inactive: 10.6%.

`O=[N+]([O-])c1ccc(N/N=C/c2cccnc2)cc1` was tested. Which Potency did it give?
Its Potency is inconclusive: 79.4 µM [inhibitor, partial curve, poor fit].

With `Cc1ccccc1CSc1nnc(C2CCN(C(=O)OC(C)(C)C)CC2)o1` as the molecule, how does the Potency read?
Its Potency is inconclusive: 112 µM [inhibitor, single point].

For `CCCn1c(=S)[nH]c2sc3c(c2c1=O)CCCC3`, which “activity change, negative = inhibition” value is on record?
The value was inactive: -12.6%.

With `O=C(CNC(=O)c1ccco1)OCC(=O)c1ccc([N+](=O)[O-])cc1` as the molecule, how does the “activity change, negative = inhibition” value read?
The value was inactive: -25.7%.

`Cc1cccc(N2C(N)=C(C#N)C(C#N)(C#N)C2c2ccccc2)c1` (configuration not stated) was tested. Which Potency did it give?
Its Potency is inconclusive: 89.1 µM [inhibitor, partial curve, poor fit].

`CSCCC(NC(=O)c1ccc(Cl)cc1)C(=O)OCC(=O)Nc1cc(Cl)ccc1C#N` (configuration not stated) was tested. Which Potency did it give?
Its Potency is inconclusive: 141 µM [inhibitor, partial curve, poor fit].

For `CCOc1ccc(S(=O)(=O)Nc2cc(C(=O)N(C)CC(=O)NC)ccc2N2CCNCC2)cc1`, which Potency is on record?
The Potency was inconclusive: 7.94 µM [inhibitor, full curve].

With `O=C(Nc1ccc2c(N3CCCC3)ncnc2c1)c1ccc(Cl)cc1` as the molecule, how does the Potency read?
The Potency was inconclusive: 39.8 µM [inhibitor, partial curve, poor fit].

Which “activity change, negative = inhibition” value does the source give for `CCOc1ccccc1Oc1c(C)oc2cc(OCC(=O)Nc3ccc(O)cc3C)ccc2c1=O` here?
Its value is inactive: -1.94%.

With `N[C@@H]1CC[C@H](C(=O)N2CCN(Cc3cccc(C(F)(F)F)c3)CC2)C1` as the molecule, how does the Potency read?
The Potency was inconclusive: 7.08 µM [inhibitor, full curve].

For `O=C(CCS(=O)(=O)c1cccc2nonc12)Nc1c(F)cccc1F`, which Potency is on record?
Its Potency is inconclusive: 70.8 µM [inhibitor, partial curve, poor fit].

`Cn1c(=O)[nH]c(=O)c2c1ncn2Cc1ccccc1` was tested. Which Potency did it give?
Its Potency is inconclusive: 3.55 µM [inhibitor, full curve, poor fit].

How did the “activity change, negative = inhibition” value turn out when `CNC(=O)c1cc(S(=O)(=O)N[C@@H]2COCC[C@H]2O)ccc1OC` was run?
The value was inactive: 0.821%.

How did the Potency turn out when `NC(=O)c1oc2ccccc2c1NC(=O)CCc1ccccc1` was run?
Its Potency is inconclusive: 100 µM [inhibitor, single point].

For `O=C(O)c1cccc2cccc(-c3c4ccc(=O)c(O)c-4oc4c(O)c(O)ccc34)c12`, which Potency is on record?
The Potency was active: 6.31 µM.
